According to patent publication US8088897B2, “Assay method for group transfer reactions” (BellBrook Labs, Inc., priority 2003, dated 2012):
At least one structure is not confirmed: it was looked up by name or label, or the drawing left a doubt.

Molecular target: T1, SULT1E1 (Homo sapiens, UniProt P49888)
T1 construct: made in house; host or cells: E. coli
T1 sequence (P49888 1-294): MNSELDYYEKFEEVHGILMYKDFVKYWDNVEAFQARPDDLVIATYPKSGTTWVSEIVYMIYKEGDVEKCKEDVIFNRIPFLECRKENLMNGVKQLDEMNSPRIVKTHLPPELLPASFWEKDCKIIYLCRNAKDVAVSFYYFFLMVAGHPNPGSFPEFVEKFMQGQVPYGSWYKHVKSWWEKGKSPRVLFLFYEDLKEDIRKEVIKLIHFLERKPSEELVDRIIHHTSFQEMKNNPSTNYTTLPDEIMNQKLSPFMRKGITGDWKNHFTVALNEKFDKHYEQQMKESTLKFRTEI
Assay: SULT1E1 enzymatic properties (Km, acceptor substrate specificity)
Assay type: biochemical
Conditions: purified SULT1E1
From the text: In order to establish a sulfotransferase HTS assay method, SULT1E1, a SULT isoform, was first subcloned into an E. coli expression vector with a C-terminal 6× histidine tag and the expressed protein was purified by affinity chromatography and characterized with respect to its physical and enzymatic properties.

C[C@]12CC[C@@H]3c4ccc(O)cc4CC[C@H]3[C@@H]1CCC2=O [estrone]
acceptor substrate specificity: very good substrates
